Data source: PubChem BioAssay AID743121 (NCATS, 2013)
This is a random part of about 26,000 deposited reagents. In the full data, 167 (0.63%) were called active. 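Calls are per gene from RSA p-values that are not deposited; an individual active-marked siRNA can sensitise only weakly.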 The numbers tell different reagents against one gene apart. Not all columns of the deposit are shown. No sequences are given here.

Screen: 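Genes whose silencing strengthens cell killing by camptothecin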 (primary screen)
Cell system: MDA-MB-231 cells, a human breast cancer line
Reagents: single siRNA against human genes, 20 nM siRNA (0.8 pmol per well)
Time to read-out: 120 h (drug added 48 h after transfection, read 72 h later)
Treatment: camptothecin 20 nM (about EC30) for 72 h; vehicle 0.1% DMSO in parallel plates
Read-out: 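CellTiter-Glo ATP signal, scaled to control siRNA as percent viability; sensitisation given as log2 of untreated divided by camptothecin-treated viability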
Reading the numbers: log2 vehicle/camptothecin viability: higher = stronger sensitisation to camptothecin; viability with camptothecin: higher = more viable cells
Call rule: 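Each gene scored by redundant siRNA activity (RSA) over its individual siRNA ratios; a gene is called active at p < 0.001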

gene,reagent,log2 vehicle/camptothecin viability,viability with camptothecin (% of control),Outcome
CDC20 (GeneID 991),1,0.908,6.83,inactive
CDC20 (GeneID 991),2,-0.179,96.1,inactive
CDC20 (GeneID 991),3,-0.145,71.3,inactive
CDC20 (GeneID 991),4,-0.154,46.8,inactive
NAPSB (GeneID 256236),1,1.74,12.6,inactive
NAPSB (GeneID 256236),2,-0.387,105,inactive
NAPSB (GeneID 256236),3,-0.409,82.4,inactive
NAPSB (GeneID 256236),4,0.261,35,inactive
RXFP4 (GeneID 339403),1,-0.468,89.2,inactive
RXFP4 (GeneID 339403),2,-0.217,82.3,inactive
RXFP4 (GeneID 339403),3,-0.0122,32.1,inactive
AASS (GeneID 10157),1,-0.141,81.3,inactive
AASS (GeneID 10157),2,-0.243,82.5,inactive
AASS (GeneID 10157),3,-0.119,111,inactive
AASS (GeneID 10157),4,-0.237,84,inactive
PI4K2A (GeneID 55361),1,-0.241,81.6,inactive
PI4K2A (GeneID 55361),2,-0.0255,96,inactive
PI4K2A (GeneID 55361),3,-0.383,73.8,inactive
PI4K2A (GeneID 55361),4,0.171,58.6,inactive
RYK (GeneID 6259),1,-0.216,102,inactive
RYK (GeneID 6259),2,-0.211,95.8,inactive
RYK (GeneID 6259),3,-0.486,73,inactive
RYK (GeneID 6259),4,-0.431,54.3,inactive
GAS6 (GeneID 2621),1,-0.119,87.9,inactive
GAS6 (GeneID 2621),2,0.18,76.5,inactive
GAS6 (GeneID 2621),3,0.0853,86.3,inactive
GAS6 (GeneID 2621),4,-0.215,98.7,inactive
HGS (GeneID 9146),1,0.353,30,inactive
HGS (GeneID 9146),2,-0.395,94.9,inactive
HGS (GeneID 9146),3,-0.423,88.4,inactive
HGS (GeneID 9146),4,0.123,69.1,inactive
CDC25B (GeneID 994),1,-0.239,76.9,inactive
CDC25B (GeneID 994),2,-0.0623,50.3,inactive
CDC25B (GeneID 994),3,-0.499,93.8,inactive
CDC25B (GeneID 994),4,-0.232,36.9,inactive
ABCA1 (GeneID 19),1,-0.103,116,inactive
ABCA1 (GeneID 19),2,-0.387,52.7,inactive
ABCA1 (GeneID 19),3,0.36,76.2,inactive
ABCA1 (GeneID 19),4,0.318,71.3,inactive
RGS17 (GeneID 26575),1,0.0818,98.2,inactive
RGS17 (GeneID 26575),2,-0.197,102,inactive
RGS17 (GeneID 26575),3,0.113,85.2,inactive
RGS17 (GeneID 26575),4,-0.491,85.7,inactive
INPP5B (GeneID 3633),1,-0.302,65.6,inactive
INPP5B (GeneID 3633),2,-0.0721,90.2,inactive
INPP5B (GeneID 3633),3,-0.013,91,inactive
INPP5B (GeneID 3633),4,0.0644,46.6,inactive
DNMT3A (GeneID 1788),1,-0.121,51.5,inactive
DNMT3A (GeneID 1788),2,0.0956,85.3,inactive
DNMT3A (GeneID 1788),3,0.253,38.7,inactive
DNMT3A (GeneID 1788),4,0.111,66.6,inactive
DNMT3A (GeneID 1788),5,-0.0304,84.9,inactive
DNMT3A (GeneID 1788),6,-0.0903,74.2,inactive
DNMT3A (GeneID 1788),7,-0.0676,96.5,inactive
DNMT3A (GeneID 1788),8,-0.448,58.5,inactive
PPP1R16B (GeneID 26051),1,0.92,21.4,active
PPP1R16B (GeneID 26051),2,0.452,45.2,active
PPP1R16B (GeneID 26051),3,-0.152,45.3,active
PPP1R16B (GeneID 26051),4,0.664,24.9,active
NCOR2 (GeneID 9612),1,-0.302,83.5,inactive
NCOR2 (GeneID 9612),2,-0.63,103,inactive
NCOR2 (GeneID 9612),3,0.118,64.4,inactive
NCOR2 (GeneID 9612),4,-0.0186,101,inactive
IREB2 (GeneID 3658),1,-0.0535,112,inactive
IREB2 (GeneID 3658),2,-0.0341,116,inactive
IREB2 (GeneID 3658),3,-0.408,92.1,inactive
CD40 (GeneID 958),1,-0.267,67.1,inactive
CD40 (GeneID 958),2,-0.0416,72.7,inactive
CD40 (GeneID 958),3,0.1,111,inactive
